Several values for one entry are separate records, joined by “and”; a condition that tells them apart may be missing. Equal values may be shown once. About 6,100 (1.1%) of roughly 580,000 compounds were called active. The shares of active, inactive and inconclusive entries below differ from those in the screen. Calls come from the whole dose curve; as a rule, active = well fitted inhibition curve with a large enough effect; inconclusive = small, poorly fitted or top-dose-only effect, or another doubt; inactive = no such curve, though single readings can be large or run the other way. Potencies of inconclusive entries are doubtful fits and often do not repeat.
Biological target: Polyunsaturated fatty acid lipoxygenase ALOX12 (Homo sapiens) (UniProt P18054)
Assay: Primary qHTS assay for inhibitors of human arachidonate 12S-lipoxygenase (ALOX12): Round 2
Details: purified 12hLO, xylenol orange hydroperoxide absorbance; series mostly up to 108 µM
Summary of the method: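 Purified human 12hLO (150 nM final) in 25 mM Hepes, 0.01% Triton X-100, pH 7.0 was preincubated 15 min at room temperature with compound. Then 40 uM arachidonic acid was added, 30 min. Hydroperoxide was read by Fe-XO absorbance ratio 573/405 nm.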
Potency is the fitted concentration of half-maximal effect.

Amino acid sequences for entries named in this document (tags omitted). A change or cut given only in a name is not applied to a line headed by its entry.
UniProt P18054: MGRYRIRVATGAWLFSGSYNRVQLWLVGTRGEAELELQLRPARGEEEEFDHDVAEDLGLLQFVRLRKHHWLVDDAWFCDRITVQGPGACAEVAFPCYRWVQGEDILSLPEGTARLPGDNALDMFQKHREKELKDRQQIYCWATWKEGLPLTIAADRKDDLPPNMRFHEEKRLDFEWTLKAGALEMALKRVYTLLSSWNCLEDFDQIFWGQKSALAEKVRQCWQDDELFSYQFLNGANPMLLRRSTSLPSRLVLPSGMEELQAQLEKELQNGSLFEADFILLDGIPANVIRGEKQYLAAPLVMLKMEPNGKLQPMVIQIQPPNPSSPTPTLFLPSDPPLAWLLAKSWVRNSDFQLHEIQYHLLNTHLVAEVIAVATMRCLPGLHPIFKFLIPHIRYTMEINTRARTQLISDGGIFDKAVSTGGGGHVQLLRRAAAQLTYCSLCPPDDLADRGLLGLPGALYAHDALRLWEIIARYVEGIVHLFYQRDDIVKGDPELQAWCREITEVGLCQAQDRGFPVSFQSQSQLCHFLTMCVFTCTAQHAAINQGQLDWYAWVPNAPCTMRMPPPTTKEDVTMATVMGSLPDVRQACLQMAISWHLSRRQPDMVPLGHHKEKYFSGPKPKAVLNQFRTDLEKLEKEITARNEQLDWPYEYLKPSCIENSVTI

Row | SMILES | Potency
1 | COc1ccc(CNC(=S)Nc2cccc(OC)c2)cc1 | inconclusive: 44.7 µM [inhibitor, partial curve, poor fit]
2 | O=C(NCC1CCCO1)/C(=C\c1ccco1)NC(=O)c1ccccc1 (stereo not given) | inconclusive: 14.1 µM [inhibitor, partial curve, poor fit]
3 | Cc1cc(N2CCN(C(=O)[C@H]3CC[C@@H](N)C3)CC2)n2ncnc2n1 | inconclusive: 10 µM [inhibitor, full curve]
4 | CN(Cc1ccccc1)C(=O)c1ncn(C)c1C(=O)N(C)Cc1ccccc1 | inconclusive: 44.7 µM [inhibitor, partial curve, poor fit]
5 | CC1CCC(NC(=O)c2cc(=O)[nH]c3ccccc23)CC1 (stereo not given) | inactive
6 | CCCCn1cc(S(=O)(=O)c2cccc(C)c2)c(=O)c2cc(F)c(N3CCOCC3)cc21 | inconclusive: 50.1 µM [inhibitor, partial curve, poor fit]
7 | Cc1ccc(S(=O)(=O)NCC(c2cccnc2)S(=O)(=O)c2ccccc2)cc1 (stereo not given) | inconclusive: 50.1 µM [inhibitor, partial curve, poor fit]
8 | CC(C)CNC(=O)N1CC[C@H]2C(=O)NCCCCCCN(Cc3ccncc3)[C@@H]2C1 | inactive
9 | COc1ccc(C(=O)NC(=O)COC(=O)CCS(=O)(=O)c2ccc(C)cc2)cc1 | inactive
10 | COc1cc(/C=C/c2ncc(C(=O)O)s2)cc(Cl)c1OC | inconclusive: 39.8 µM [inhibitor, partial curve, poor fit]
11 | COC(=O)c1sc2ccccc2c1N | active: 35.5 µM
12 | CC(C)(C)c1nc(CN2CCOCC2)cc(CN2CCOCC2)c1O | inconclusive: 28.2 µM [inhibitor, single point]
13 | Cc1ccc(C)c(Cn2nc(-c3cc(C)ccc3C)ccc2=O)c1 | inactive and inconclusive: 70.8 µM [inhibitor, partial curve, poor fit]
14 | c1ccc(CNc2nc(-c3cccnc3)nc3ccccc23)cc1 | inconclusive: 126 µM [inhibitor, single point] and inconclusive: 44.7 µM [inhibitor, partial curve]
15 | N#Cc1ccc(S(=O)(=O)N2CCN(C(=O)c3cnn(Cc4ccccc4Cl)c3)CC2)cc1 | inconclusive: 112 µM [inhibitor, single point]
16 | COC(=O)Cc1ccc(NC(=S)NCc2ccc(F)cc2)cc1 | inconclusive: 79.4 µM [inhibitor, partial curve, poor fit]
17 | CCOC(=O)CCCc1ccc(/C(C)=N/NC(N)=S)cc1 | inconclusive: 20 µM [inhibitor, full curve, poor fit]
18 | COC1C(=O)N(CC2CC2)C12CCN(S(=O)(=O)c1cccc3cccnc13)CC2 (stereo not given) | inconclusive: 44.7 µM [inhibitor, partial curve]
19 | CCCCOC1CC(c2ccc(OCc3ccc(OC)cc3)c(OC)c2)N(C)O1 (stereo not given) | inconclusive: 39.8 µM [inhibitor, full curve, poor fit]
20 | Cc1ccccc1S(=O)(=O)N1CCC(C(=O)NCc2csc(-c3ccccc3)n2)CC1 | inactive
21 | CC1=C[C@@H](CNC(=O)CCCC(=O)O)[C@H](C(C)C)C[C@H]1Cc1nc2ccc(Cl)cc2[nH]1 | inconclusive: 39.8 µM [inhibitor, single point]
22 | COc1ccc(C2CC(c3ccc4ccccc4c3)=NN2C(=O)CN2CCC(C(N)=O)CC2)cc1 (stereo not given) | inactive

Row | SMILES | Potency
23 | CCc1ccc(Nc2cnn(-c3nc4ccccc4s3)c(=O)c2Cl)cc1 | inactive
24 | CC1CCC2(CC1)N=C(c1ccc(Cl)c(Cl)c1)C(=S)N2 (stereo not given) | inconclusive: 39.8 µM [inhibitor, partial curve, poor fit]
25 | Cc1ccc(-c2cnc(-c3c(N)sc4c3CCCC4)s2)cc1 | inconclusive: 15.8 µM [inhibitor, partial curve, poor fit]
26 | Cc1ccc(S(=O)(=O)C/N=C(/NC(=S)N(c2ccccc2)c2ccccc2)c2ccccc2)cc1 | inconclusive: 10 µM [inhibitor, full curve]
27 | Cc1cccc2cc3c(NC(=O)C(C)(C)C)nn(CC(C)C)c3nc12 | inconclusive: 35.5 µM [inhibitor, partial curve]
28 | Cn1c(=O)c2sccc2n(CC(=O)NCC2CCCO2)c1=O (stereo not given) | inactive
29 | CN1CCN(CCNC(=O)CCn2ccc3cc(S(=O)(=O)N4CCCCC4)ccc32)CC1 | inconclusive: 100 µM [inhibitor, partial curve, poor fit]
30 | Nc1nccnc1C(=O)NCCC12CC3CC(CC(C3)C1)C2 | inactive
31 | NC(=S)N/N=C1/CCCCC1c1ccccn1 (stereo not given) | inconclusive: 50.1 µM [inhibitor, single point]
32 | O=C1N2CCCC2CN1C1CCN(Cc2ccc3ccccc3c2)CC1 (stereo not given) | inactive
33 | CCOC(=O)C1CCN(C(=O)C2CCN(S(=O)(=O)c3cc(Cl)ccc3Cl)CC2)CC1 | inactive
34 | CCCn1c(NCc2ccc(N(CC)CC)cc2)nc2ccccc21 | inconclusive: 89.1 µM [inhibitor, single point]
35 | Cc1noc(C)c1-c1nccc(NCCN2CCOCC2)n1 | active: 31.6 µM
36 | O=C(c1ccc2nc(-c3ccccc3)c(-c3ccccc3)nc2c1)N1CCCCC1 | inconclusive: 70.8 µM [inhibitor, partial curve, poor fit]
37 | CN(C)/C=C/C=C1C(=O)CCCC1=O | inactive
38 | CN(C)C(=O)c1n[nH]c2c1CN(C(=O)c1ccc(F)cc1)CC2 | inactive
39 | Cc1ccc(S(=O)(=O)NC2=C(N3CCN(Cc4ccccc4)CC3)C(=O)c3ccccc3C2=O)cc1 | inconclusive: 158 µM [inhibitor, partial curve, poor fit]
40 | CO[C@@H]1[C@@H](O[C@@H]2O[C@H](C)[C@@H](O[C@H]3C[C@@](C)(O)[C@@H](O)[C@H](C)O3)[C@H](N(C)C)[C@H]2O)[C@@H](CC=O)C[C@@H](C)[C@@H](O[C@@H]2CC[C@H](N(C)C)[C@@H](C)O2)/C=C/C=C/C[C@@H](C)OC(=O)C[C@H]1OC(C)=O | inconclusive: 28.2 µM [inhibitor, partial curve, poor fit]
41 | COc1ccc([N+](=O)[O-])cc1NS(=O)(=O)c1cc(C(=O)N2CCN(C)CC2)ccc1OC | inconclusive: 25.1 µM [inhibitor, partial curve, poor fit]
42 | COCCOC1CCN(C(=O)COc2ccc(C)cc2)CC1 | inactive
43 | Cc1ccc(-c2cnc(CCC(=O)Nc3cc(Cl)c(N)c(Cl)c3)o2)cc1C | inactive
44 | C=C1C(=O)[C@@]23[C@H](O)C[C@@H]4C(C)(C)CC[C@H](O)[C@@]4(C)[C@@H]2CC[C@@H]1[C@H]3O | inactive

Row | SMILES | Potency
45 | COc1ccccc1Oc1c(C)oc2cc(OCC(=O)Nc3ccc(C)cc3C)ccc2c1=O | inconclusive: 89.1 µM [inhibitor, single point]
46 | O=C(Cn1cc(/C=N/NC(=O)c2cccc3ccccc23)c2ccccc21)Nc1ccc(F)cc1 | inactive
47 | O=C(Nc1ncccn1)c1ccc(Cl)c([N+](=O)[O-])c1 | inconclusive: 31.6 µM [inhibitor, single point]
48 | COc1ccc2nc(N3CCC(C)CC3)c(C#N)cc2c1 | inconclusive: 11.2 µM [inhibitor, partial curve]
49 | CCOc1ccccc1NC(=O)Cn1c(-c2ccccc2)nc(C)c(CCO)c1=O | inconclusive: 10 µM [inhibitor, full curve, poor fit]
50 | Cc1cc(C)n(C(=O)CNc2ccc(C)c(C)c2)n1 | inconclusive: 56.2 µM [inhibitor, partial curve, poor fit]
51 | CSCC(=O)NCCc1cccs1 | inactive
52 | COc1ccc(S(=O)(=O)Nc2ccc3c(c2)n(C)c(=O)n3C)cc1OC | inactive
53 | COc1cccc(-c2nc(-c3ccc4c(c3)NC(=O)CO4)cs2)c1 | inconclusive: 17.8 µM [inhibitor, partial curve, poor fit]
54 | COc1ccc(Br)cc1CNc1ccc(O)cc1 | inconclusive: 28.2 µM [inhibitor, partial curve, poor fit]
55 | O=C(O)c1cnn(-c2nc(-c3ccc(Cl)c(Cl)c3)cs2)c1C(F)(F)F | inconclusive: 44.7 µM [inhibitor, partial curve, poor fit]
56 | O=C1c2cccc3cccc(c23)C(=O)N1CCN1CCN(CC(O)COCc2ccc(Cl)cc2)CC1 (stereo not given) | inconclusive: 50.1 µM [inhibitor, partial curve, poor fit]
57 | CC(=C/c1ccccc1)/C=N/n1c(-c2ccncc2)n[nH]c1=S | active: 12.6 µM
58 | CC1(Oc2cnc(Cl)c3ccccc23)CCN(Cc2ccc(-c3ccccn3)cc2)C1 (stereo not given) | inconclusive: 100 µM [inhibitor, single point]
59 | COc1cccc(NC(=O)CN2CCSc3ccccc32)c1 | inconclusive: 89.1 µM [inhibitor, partial curve, poor fit]
60 | O=C(O)c1cc(-c2ccc(/C=N/NC(=S)Nc3ccccc3)o2)ccc1Cl | active: 28.2 µM
61 | O=C(CSc1nc2ccccc2s1)NCc1cc([N+](=O)[O-])ccc1O | inconclusive: 44.7 µM [inhibitor, partial curve, poor fit]
62 | Cc1ccc(C)c(N2CCN(C3=C(c4ccccc4)C(=O)c4ccccc43)CC2)c1 | inactive
63 | COCc1ncc(C)n1C1CCCNC1 (stereo not given) | inactive
64 | Cc1ccc(CN2CCC3(CNc4ccccc4[S+](=O)([O-])N3)C2)cc1 (stereo not given) | inconclusive: 44.7 µM [inhibitor, partial curve]
65 | CCSc1nnc(SCC(=O)N2CCN(C(=O)c3ccco3)CC2)s1 | inconclusive: 112 µM [inhibitor, single point]

An excerpt from above in order of SMILES length, largest number first:
Row | SMILES | Potency
39 | Cc1ccc(S(=O)(=O)NC2=C(N3CCN(Cc4ccccc4)CC3)C(=O)c3ccccc3C2=O)cc1 | inconclusive: 158 µM [inhibitor, partial curve, poor fit]
34 | CCCn1c(NCc2ccc(N(CC)CC)cc2)nc2ccccc21 | inconclusive: 89.1 µM [inhibitor, single point]
37 | CN(C)/C=C/C=C1C(=O)CCCC1=O | inactive

Reference: PubChem BioAssay AID1671190 (National Center for Advancing Translational Sciences (NCATS), 2021)
